Reference: PubChem BioAssay AID1259254 (NCATS, 2017)
Purpose: 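Gene knock-downs that lead to re-replication, shown by excess G2 DNA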 (primary screen). Cell system: human HCT116 colorectal cancer cells. Reagent: single siRNA against human genes. Duration: 3 days. Read-out: 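Nuclei stained with Hoechst and imaged; cell-cycle phase assigned by DNA content; G2 share scaled per plate, non-targeting siRNA 0%, GMNN siRNA 100%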. Scale: G2 robust z-score and G2 cells, % of GMNN control: higher = more G2 cells, more excess DNA replication. Active means: 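An siRNA counts as active if its G2 robust z-score lies at least 5 MADs above the screen median; here such calls match roughly 38% of GMNN control or more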.
The deposit covers about 59,000 reagents; this is an unselected part. About 1,550 of all reagents (2.6%) count as active. 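G2 share is only a proxy for re-replication; each gene was hit by three separate siRNAs, and active genes were retested.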 A number with no mark means an inactive call. Reagents against one gene are numbered here. Not all columns of the deposit are shown. Reagent sequences are not shown. The record does not give: the amount of reagent.

What is on record for TOMM40 (translocase of outer mitochondrial membrane 40) #1?
G2 robust z-score: -0.823; G2 cells, % of GMNN control: -2.82

What did the screen give for TOMM40 (translocase of outer mitochondrial membrane 40) #2?
G2 robust z-score: 0.139; G2 cells, % of GMNN control: 3.95

What did the screen give for TOMM40 (translocase of outer mitochondrial membrane 40) #3?
G2 robust z-score: -0.701; G2 cells, % of GMNN control: -1.97

With KCNK6 (potassium two pore domain channel subfamily K member 6) #1, what does the deposit list?
G2 robust z-score: 3.79; G2 cells, % of GMNN control: 29.7

With KCNK6 (potassium two pore domain channel subfamily K member 6) #2, what does the deposit list?
G2 robust z-score: 0.58; G2 cells, % of GMNN control: 7.05

For KCNK6 (potassium two pore domain channel subfamily K member 6) #3, how do the results read?
G2 robust z-score: 0.798; G2 cells, % of GMNN control: 8.58

Targets above whose target name starts with T or t (3):
TOMM40 (translocase of outer mitochondrial membrane 40) #1 | G2 robust z-score: -0.823; G2 cells, % of GMNN control: -2.82
TOMM40 (translocase of outer mitochondrial membrane 40) #2 | G2 robust z-score: 0.139; G2 cells, % of GMNN control: 3.95
TOMM40 (translocase of outer mitochondrial membrane 40) #3 | G2 robust z-score: -0.701; G2 cells, % of GMNN control: -1.97

More records follow:
With NLK (nemo like kinase) #1, how do the results read?
G2 robust z-score: -0.0674; G2 cells, % of GMNN control: 2.49

What did the screen give for NLK (nemo like kinase) #2?
G2 robust z-score: 0.218; G2 cells, % of GMNN control: 4.5

For NLK (nemo like kinase) #3, what was measured?
G2 robust z-score: 1.06; G2 cells, % of GMNN control: 10.4

With SYT3 (synaptotagmin 3) #1, what was measured?
G2 robust z-score: -0.522; G2 cells, % of GMNN control: -0.702

For SYT3 (synaptotagmin 3) #2, what does the deposit list?
G2 robust z-score: 3; G2 cells, % of GMNN control: 24

How did the screen score SYT3 (synaptotagmin 3) #3?
G2 robust z-score: -0.875; G2 cells, % of GMNN control: -3.19
